The record followed here is US9765295B2, “Composition for culturing sanal and sanal culturing method using the same” (Samsung Electronics Co., Ltd., priority 2014, dated 2017).

This series is described as follows: Assaying amino acid components in primo fluid, interstitial fluid, lymphatic fluid and blood plasma (HPLC and nano LC). On the set-up: species or system rat. The conditions noted are these: endogenous level; for Amino acid concentration in Blood Plasma: rat blood plasma; for Amino acid concentration in Interstitial Fluid: rat interstitial fluid; for Amino acid concentration in Lymphatic Fluid: rat lymphatic fluid; for Amino acid concentration in Primo Fluid (n = 5): rat primo fluid.

As to `NC(=O)C[C@H](N)C(=O)O` [L-Asparagine], the “Amino acid concentration in Blood Plasma” value is reported as 7.8 mg/L, the “Amino acid concentration in Interstitial Fluid” value worked out at 3.849 mg/L, the “Amino acid concentration in Lymphatic Fluid” value is recorded as 27.2493 mg/L and the “Amino acid concentration in Primo Fluid (n = 5)” value amounted to 63.1 ± 1.80 mg/L.

With `N=C(N)NCCC[C@H](N)C(=O)O` [L-Arginine], the “Amino acid concentration in Blood Plasma” value is 35.7 mg/L, the “Amino acid concentration in Interstitial Fluid” value was determined as 10.885 mg/L, the “Amino acid concentration in Lymphatic Fluid” value was 44.426 mg/L and the “Amino acid concentration in Primo Fluid (n = 5)” value turned out to be 105.6 ± 4.13 mg/L.

Turning to `O=C(O)[C@@H]1C[C@@H](O)CN1` [L-Hydroxyproline], the “Amino acid concentration in Blood Plasma” value amounted to 7.2 mg/L, the “Amino acid concentration in Interstitial Fluid” value is recorded as 1.021 mg/L, the “Amino acid concentration in Lymphatic Fluid” value is on record as 3.273 mg/L and the “Amino acid concentration in Primo Fluid (n = 5)” value came out at 2.17 ± 0.50 mg/L.

On to `O=C(O)[C@@H]1CCCN1` [L-Proline], for which the “Amino acid concentration in Blood Plasma” value was determined as 18.8 mg/L, the “Amino acid concentration in Interstitial Fluid” value came to 4.149 mg/L, the “Amino acid concentration in Lymphatic Fluid” value was found to be 31.9353 mg/L and the “Amino acid concentration in Primo Fluid (n = 5)” value amounted to 53.5 ± 1.51 mg/L.

Consider `NCCCC[C@H](N)C(=O)O` [L-Lysine], for which the “Amino acid concentration in Blood Plasma” value is listed as 58.9 mg/L, the “Amino acid concentration in Interstitial Fluid” value is on record as 20.231 mg/L, the “Amino acid concentration in Lymphatic Fluid” value was 73.6931 mg/L and the “Amino acid concentration in Primo Fluid (n = 5)” value is 217.8 ± 26.6 mg/L.

Take `C[C@H](N)C(=O)O` [L-Alanine]: the “Amino acid concentration in Blood Plasma” value is recorded as 37.4 mg/L, the “Amino acid concentration in Interstitial Fluid” value came to 12.076 mg/L, the “Amino acid concentration in Lymphatic Fluid” value is given as 70.3837 mg/L and the “Amino acid concentration in Primo Fluid (n = 5)” value was 116.0 ± 5.17 mg/L.

Regarding `N[C@@H](CC(=O)O)C(=O)O` [L-Aspartic acid], the “Amino acid concentration in Blood Plasma” value is given as 3.6 mg/L, the “Amino acid concentration in Interstitial Fluid” value is recorded as 1.13 mg/L, the “Amino acid concentration in Lymphatic Fluid” value is on record as 171.6287 mg/L and the “Amino acid concentration in Primo Fluid (n = 5)” value is recorded as 68.3 ± 4.34 mg/L.

Regarding `N[C@@H](Cc1c[nH]c2ccccc12)C(=O)O` [L-Tryptophane], the “Amino acid concentration in Blood Plasma” value was 25.1 mg/L, the “Amino acid concentration in Interstitial Fluid” value is listed as 1.659 mg/L, the “Amino acid concentration in Lymphatic Fluid” value was found to be 3.1684 mg/L and the “Amino acid concentration in Primo Fluid (n = 5)” value is reported as 13.5 ± 2.17 mg/L.

For the molecule `C[C@@H](O)[C@H](N)C(=O)O` [L-Threonine], the “Amino acid concentration in Blood Plasma” value was 32.5 mg/L, the “Amino acid concentration in Interstitial Fluid” value amounted to 8.195 mg/L, the “Amino acid concentration in Lymphatic Fluid” value amounted to 36.339 mg/L and the “Amino acid concentration in Primo Fluid (n = 5)” value came to 80.4 ± 1.32 mg/L.

Regarding `N[C@@H](Cc1ccc(O)cc1)C(=O)O` [L-Tyrisine], the “Amino acid concentration in Blood Plasma” value turned out to be 14.9 mg/L, the “Amino acid concentration in Interstitial Fluid” value is 6.112 mg/L, the “Amino acid concentration in Lymphatic Fluid” value came to 284.262 mg/L and the “Amino acid concentration in Primo Fluid (n = 5)” value is on record as 104.6 ± 7.05 mg/L.

With `N[C@@H](CCC(=O)O)C(=O)O` [L-Glutamic acid], the “Amino acid concentration in Blood Plasma” value stood at 21.6 mg/L, the “Amino acid concentration in Interstitial Fluid” value is reported as 10.382 mg/L, the “Amino acid concentration in Lymphatic Fluid” value came out at 250.8982 mg/L and the “Amino acid concentration in Primo Fluid (n = 5)” value is listed as 157.9 ± 9.63 mg/L.

In the case of `NCC(=O)O` [Glycine], the “Amino acid concentration in Blood Plasma” value came to 1.7 mg/L, the “Amino acid concentration in Interstitial Fluid” value is recorded as 7.85 mg/L, the “Amino acid concentration in Lymphatic Fluid” value came to 79.963 mg/L and the “Amino acid concentration in Primo Fluid (n = 5)” value is reported as 123.8 ± 2.57 mg/L.

Regarding `N[C@@H](CO)C(=O)O` [L-Serine], the “Amino acid concentration in Blood Plasma” value amounted to 17.9 mg/L, the “Amino acid concentration in Interstitial Fluid” value stood at 7.833 mg/L, the “Amino acid concentration in Lymphatic Fluid” value amounted to 40.577 mg/L and the “Amino acid concentration in Primo Fluid (n = 5)” value was 96.1 ± 3.99 mg/L.

`N[C@@H](Cc1ccccc1)C(=O)O` [L-Phenylalanine]: the “Amino acid concentration in Blood Plasma” value came to 11.6 mg/L, the “Amino acid concentration in Interstitial Fluid” value came to 4.38 mg/L, the “Amino acid concentration in Lymphatic Fluid” value is given as 32.7854 mg/L and the “Amino acid concentration in Primo Fluid (n = 5)” value came to 122.2 ± 8.91 mg/L.

In the case of `CC(C)[C@H](N)C(=O)O` [L-Valine], the “Amino acid concentration in Blood Plasma” value stood at 24 mg/L, the “Amino acid concentration in Interstitial Fluid” value stood at 6.631 mg/L, the “Amino acid concentration in Lymphatic Fluid” value amounted to 35.7542 mg/L and the “Amino acid concentration in Primo Fluid (n = 5)” value was determined as 105.0 ± 4.48 mg/L.

For `N[C@@H](Cc1c[nH]cn1)C(=O)O` [L-Histidine], the “Amino acid concentration in Blood Plasma” value is given as 10.7 mg/L, the “Amino acid concentration in Interstitial Fluid” value stood at 3.105 mg/L, the “Amino acid concentration in Lymphatic Fluid” value was found to be 15.9813 mg/L and the “Amino acid concentration in Primo Fluid (n = 5)” value is given as 60.5 ± 9.03 mg/L.

As to `CC[C@H](C)[C@H](N)C(=O)O` [L-Isoleucine], the “Amino acid concentration in Blood Plasma” value was found to be 13.1 mg/L, the “Amino acid concentration in Interstitial Fluid” value was 4.337 mg/L, the “Amino acid concentration in Lymphatic Fluid” value is given as 23.4005 mg/L and the “Amino acid concentration in Primo Fluid (n = 5)” value is 80.3 ± 5.14 mg/L.

For `CSCC[C@H](N)C(=O)O` [L-Methionine], the “Amino acid concentration in Blood Plasma” value was found to be 9 mg/L, the “Amino acid concentration in Interstitial Fluid” value is reported as 2.809 mg/L, the “Amino acid concentration in Lymphatic Fluid” value amounted to 15.4886 mg/L and the “Amino acid concentration in Primo Fluid (n = 5)” value is 49.6 ± 1.23 mg/L.
